Results published in paper doi:10.1101/435875.
No constants are given. Whether binding was seen depends on the method and setting. Binding seen in cells or lysates may run through a third protein. Some entries that bind do so weakly or less than the wild type.

Sequences of proteins named here, by UniProt entry; tags and fusion partners are left off.
UniProt Q62658, whole entry: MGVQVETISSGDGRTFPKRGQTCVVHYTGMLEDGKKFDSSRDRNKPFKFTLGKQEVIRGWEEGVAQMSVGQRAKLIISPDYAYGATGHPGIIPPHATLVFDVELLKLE
UniProt B0LPN4, whole entry: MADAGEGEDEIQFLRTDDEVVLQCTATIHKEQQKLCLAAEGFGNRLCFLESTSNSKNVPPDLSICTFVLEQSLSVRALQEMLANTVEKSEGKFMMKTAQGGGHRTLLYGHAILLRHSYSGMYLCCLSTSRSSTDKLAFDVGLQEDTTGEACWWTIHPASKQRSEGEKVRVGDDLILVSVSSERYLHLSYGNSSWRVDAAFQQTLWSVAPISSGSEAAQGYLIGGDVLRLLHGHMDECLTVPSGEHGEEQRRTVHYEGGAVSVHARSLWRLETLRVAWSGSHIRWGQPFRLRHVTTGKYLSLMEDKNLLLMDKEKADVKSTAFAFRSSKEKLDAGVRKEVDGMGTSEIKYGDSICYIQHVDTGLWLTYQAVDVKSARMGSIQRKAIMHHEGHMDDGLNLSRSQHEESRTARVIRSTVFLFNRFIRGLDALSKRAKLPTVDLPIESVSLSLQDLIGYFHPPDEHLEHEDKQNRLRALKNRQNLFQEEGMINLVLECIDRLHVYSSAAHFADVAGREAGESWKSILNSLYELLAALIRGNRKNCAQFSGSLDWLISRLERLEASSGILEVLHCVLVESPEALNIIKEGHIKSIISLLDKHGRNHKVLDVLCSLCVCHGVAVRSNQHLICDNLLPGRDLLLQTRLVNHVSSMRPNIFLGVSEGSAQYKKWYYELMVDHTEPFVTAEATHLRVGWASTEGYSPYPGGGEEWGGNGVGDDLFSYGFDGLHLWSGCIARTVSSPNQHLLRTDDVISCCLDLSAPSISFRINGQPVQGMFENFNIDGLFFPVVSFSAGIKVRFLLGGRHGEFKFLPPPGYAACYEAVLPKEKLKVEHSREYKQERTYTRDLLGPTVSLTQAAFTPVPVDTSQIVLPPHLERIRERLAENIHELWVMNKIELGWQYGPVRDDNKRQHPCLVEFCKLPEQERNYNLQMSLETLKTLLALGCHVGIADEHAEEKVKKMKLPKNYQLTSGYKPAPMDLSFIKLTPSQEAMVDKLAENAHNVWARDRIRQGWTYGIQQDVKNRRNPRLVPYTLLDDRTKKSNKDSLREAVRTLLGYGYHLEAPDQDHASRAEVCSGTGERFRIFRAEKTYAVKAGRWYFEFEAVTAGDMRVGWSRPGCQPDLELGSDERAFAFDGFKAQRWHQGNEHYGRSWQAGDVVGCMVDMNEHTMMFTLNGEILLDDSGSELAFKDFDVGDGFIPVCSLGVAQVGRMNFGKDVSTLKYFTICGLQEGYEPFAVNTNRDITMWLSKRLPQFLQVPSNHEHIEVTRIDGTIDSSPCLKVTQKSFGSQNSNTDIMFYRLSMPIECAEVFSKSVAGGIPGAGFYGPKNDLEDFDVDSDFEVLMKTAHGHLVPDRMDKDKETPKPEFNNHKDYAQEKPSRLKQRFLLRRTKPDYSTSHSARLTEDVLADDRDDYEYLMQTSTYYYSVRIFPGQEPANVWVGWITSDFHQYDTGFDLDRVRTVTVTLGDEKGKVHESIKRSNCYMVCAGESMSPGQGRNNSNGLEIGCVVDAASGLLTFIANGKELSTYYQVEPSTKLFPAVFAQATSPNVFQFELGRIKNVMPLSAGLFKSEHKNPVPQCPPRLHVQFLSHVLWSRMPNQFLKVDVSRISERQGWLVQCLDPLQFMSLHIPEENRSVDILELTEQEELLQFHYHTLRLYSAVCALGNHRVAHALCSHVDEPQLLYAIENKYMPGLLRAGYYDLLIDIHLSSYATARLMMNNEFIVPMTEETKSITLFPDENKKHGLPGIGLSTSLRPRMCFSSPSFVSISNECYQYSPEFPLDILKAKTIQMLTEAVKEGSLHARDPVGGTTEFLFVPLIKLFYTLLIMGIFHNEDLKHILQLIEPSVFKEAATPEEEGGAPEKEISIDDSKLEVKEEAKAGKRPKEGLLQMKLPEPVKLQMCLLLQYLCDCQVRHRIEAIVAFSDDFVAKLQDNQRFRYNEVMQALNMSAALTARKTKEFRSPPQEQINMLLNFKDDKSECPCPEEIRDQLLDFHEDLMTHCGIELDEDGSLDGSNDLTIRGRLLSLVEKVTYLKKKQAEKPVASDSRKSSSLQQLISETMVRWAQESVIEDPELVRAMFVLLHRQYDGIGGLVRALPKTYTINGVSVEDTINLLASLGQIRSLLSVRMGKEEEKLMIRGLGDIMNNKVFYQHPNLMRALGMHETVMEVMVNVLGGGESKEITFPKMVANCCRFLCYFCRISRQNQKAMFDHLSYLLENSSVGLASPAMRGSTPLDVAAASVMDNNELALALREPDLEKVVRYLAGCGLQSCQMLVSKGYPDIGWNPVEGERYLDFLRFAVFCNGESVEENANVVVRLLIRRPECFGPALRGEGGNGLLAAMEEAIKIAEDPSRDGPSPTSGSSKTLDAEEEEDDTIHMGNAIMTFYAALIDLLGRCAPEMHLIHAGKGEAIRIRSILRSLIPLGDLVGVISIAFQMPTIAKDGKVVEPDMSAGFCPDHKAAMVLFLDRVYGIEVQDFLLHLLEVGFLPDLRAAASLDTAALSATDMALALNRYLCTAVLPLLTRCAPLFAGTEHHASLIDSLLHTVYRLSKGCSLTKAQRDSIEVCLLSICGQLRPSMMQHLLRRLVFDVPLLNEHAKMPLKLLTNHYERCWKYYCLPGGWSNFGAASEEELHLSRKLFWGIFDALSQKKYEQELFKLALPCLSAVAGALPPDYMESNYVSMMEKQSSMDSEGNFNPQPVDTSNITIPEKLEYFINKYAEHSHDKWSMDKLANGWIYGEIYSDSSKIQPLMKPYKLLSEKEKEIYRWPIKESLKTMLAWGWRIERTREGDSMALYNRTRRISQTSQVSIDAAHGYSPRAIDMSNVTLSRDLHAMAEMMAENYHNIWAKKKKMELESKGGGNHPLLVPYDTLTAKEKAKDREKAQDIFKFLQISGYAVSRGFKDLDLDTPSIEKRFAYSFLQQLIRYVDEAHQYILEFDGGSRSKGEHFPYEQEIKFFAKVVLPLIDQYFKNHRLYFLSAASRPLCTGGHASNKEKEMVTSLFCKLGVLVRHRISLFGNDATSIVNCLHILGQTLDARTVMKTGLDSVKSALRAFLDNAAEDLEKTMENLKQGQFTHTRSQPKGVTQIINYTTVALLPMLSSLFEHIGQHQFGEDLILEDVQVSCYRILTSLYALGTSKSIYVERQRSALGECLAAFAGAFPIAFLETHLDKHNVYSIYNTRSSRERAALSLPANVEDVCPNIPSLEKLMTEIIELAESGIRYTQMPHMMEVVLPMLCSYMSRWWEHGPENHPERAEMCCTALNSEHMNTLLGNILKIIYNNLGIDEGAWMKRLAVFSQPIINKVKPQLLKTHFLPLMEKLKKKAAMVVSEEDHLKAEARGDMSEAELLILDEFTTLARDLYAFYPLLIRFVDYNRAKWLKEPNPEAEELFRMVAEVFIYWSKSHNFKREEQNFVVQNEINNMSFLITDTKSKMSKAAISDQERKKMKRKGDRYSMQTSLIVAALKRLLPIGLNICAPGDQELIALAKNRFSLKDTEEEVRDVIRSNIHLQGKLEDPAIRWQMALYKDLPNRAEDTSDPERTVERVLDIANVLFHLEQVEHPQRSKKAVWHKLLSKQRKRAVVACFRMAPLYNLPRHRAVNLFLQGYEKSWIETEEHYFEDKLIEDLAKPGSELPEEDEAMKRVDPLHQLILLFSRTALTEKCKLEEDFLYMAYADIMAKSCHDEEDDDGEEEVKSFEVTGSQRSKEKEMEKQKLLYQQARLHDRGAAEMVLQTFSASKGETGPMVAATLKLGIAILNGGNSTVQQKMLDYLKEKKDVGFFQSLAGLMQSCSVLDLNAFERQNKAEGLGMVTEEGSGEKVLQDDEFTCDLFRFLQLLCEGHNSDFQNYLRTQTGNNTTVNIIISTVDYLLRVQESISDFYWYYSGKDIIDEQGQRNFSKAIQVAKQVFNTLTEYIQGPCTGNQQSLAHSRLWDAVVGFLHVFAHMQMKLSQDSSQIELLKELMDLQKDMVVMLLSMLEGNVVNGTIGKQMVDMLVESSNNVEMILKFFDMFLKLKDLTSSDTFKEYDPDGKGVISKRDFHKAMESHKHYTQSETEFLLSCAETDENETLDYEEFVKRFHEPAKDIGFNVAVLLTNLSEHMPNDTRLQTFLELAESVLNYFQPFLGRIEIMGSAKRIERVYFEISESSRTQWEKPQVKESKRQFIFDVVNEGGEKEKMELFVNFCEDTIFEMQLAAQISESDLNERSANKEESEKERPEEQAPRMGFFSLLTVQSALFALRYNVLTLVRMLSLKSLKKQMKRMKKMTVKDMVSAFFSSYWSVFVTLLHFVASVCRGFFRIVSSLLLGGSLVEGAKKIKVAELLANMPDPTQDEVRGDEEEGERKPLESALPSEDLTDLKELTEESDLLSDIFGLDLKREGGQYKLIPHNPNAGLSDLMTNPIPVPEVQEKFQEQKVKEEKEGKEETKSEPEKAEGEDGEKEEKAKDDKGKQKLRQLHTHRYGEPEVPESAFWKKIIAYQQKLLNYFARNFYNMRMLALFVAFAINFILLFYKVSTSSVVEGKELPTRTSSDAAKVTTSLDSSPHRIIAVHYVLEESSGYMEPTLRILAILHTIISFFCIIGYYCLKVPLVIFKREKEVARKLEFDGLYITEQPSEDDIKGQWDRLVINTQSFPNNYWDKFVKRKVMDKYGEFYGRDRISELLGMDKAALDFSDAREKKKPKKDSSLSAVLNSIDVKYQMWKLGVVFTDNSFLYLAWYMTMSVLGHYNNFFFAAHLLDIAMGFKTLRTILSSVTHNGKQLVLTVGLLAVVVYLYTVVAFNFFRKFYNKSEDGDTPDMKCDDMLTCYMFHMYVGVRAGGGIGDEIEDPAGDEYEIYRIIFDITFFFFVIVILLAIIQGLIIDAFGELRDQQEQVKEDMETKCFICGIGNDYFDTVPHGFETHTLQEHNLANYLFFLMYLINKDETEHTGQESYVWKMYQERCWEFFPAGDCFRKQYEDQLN

Target: GST-FKBP12 (rat) (UniProt Q62658)
Test: pull-down

- binding: binds
Substance: RyR2 (from UniProt B0LPN4 1-4955)
